Article PMC7026407
No constants are given. Whether binding was seen depends on the method and setting.

Legend:
[1] = molecular target: T1, IGFBP-7 (UniProt Q16270); assay: SPR; IGF binding protein or Fc fusion amine-coupled to a CM4 chip, growth factor as analyte; Biacore T100/T200; HBS-P, with 0.2 mg/ml BSA or 0.65 M NaCl to reduce non-specific binding; 25 °C; 1:1 binding fit; both purified
T1 sequence: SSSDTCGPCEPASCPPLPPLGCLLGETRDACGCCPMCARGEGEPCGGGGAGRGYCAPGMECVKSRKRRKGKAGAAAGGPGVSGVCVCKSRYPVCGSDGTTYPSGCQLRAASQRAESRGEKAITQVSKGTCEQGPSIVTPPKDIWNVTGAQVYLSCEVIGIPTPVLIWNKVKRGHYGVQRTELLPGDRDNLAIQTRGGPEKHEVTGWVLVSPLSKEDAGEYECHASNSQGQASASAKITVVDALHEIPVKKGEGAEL

[2] = molecular target: T1, IGFBP-7; assay: SPR; IGF binding protein or Fc fusion amine-coupled to a CM4 chip, growth factor as analyte; Biacore T100 or T200, HBS-P, BSA (0.2 mg/ml) or NaCl (0.65 M final) to reduce non-specific binding, 25 °C; 1:1 binding analysis; both purified

Row | binding [1] | binding [2] | Substance
1 | no binding |  | VEGF (ligand)
2 |  | no binding | VEGF-A 165 (ligand)
